According to patent US20030181663A1:
These are yes or no findings as the source states them, for the method shown. Some results given as binding are weak or reduced against the parent protein; the word gives no strength.

Sequences of proteins named here, by UniProt entry; tags and fusion partners are left off. A change or cut given only in a name is not applied to a line headed by its entry.
UniProt O76061: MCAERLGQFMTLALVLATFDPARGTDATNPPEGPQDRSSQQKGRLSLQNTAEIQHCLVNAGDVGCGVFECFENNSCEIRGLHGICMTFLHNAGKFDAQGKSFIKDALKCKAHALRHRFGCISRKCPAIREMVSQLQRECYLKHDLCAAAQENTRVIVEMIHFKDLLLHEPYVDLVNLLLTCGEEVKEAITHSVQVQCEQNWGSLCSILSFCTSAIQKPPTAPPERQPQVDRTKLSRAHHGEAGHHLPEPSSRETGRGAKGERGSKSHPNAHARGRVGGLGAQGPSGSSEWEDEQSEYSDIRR

Molecular target: human stanniocalcin-alpha (human) (UniProt O76061)
Assay: SDS-PAGE and autoradiography of 35S-labelled proteins from Sf9 cells infected with recombinant baculovirus

- binding: binds
Substance: human stanniocalcin-alpha (from UniProt O76061 25-302) (ligand)
